The assay addresses GST-Cdc42-G15A (UniProt P60953). The experiment in a line: pull-down; GST-Cdc42-G15A on beads; lysates of HEK293T cells transfected with HA-Tuba (WT or YF mutant; with or without Flag-Shp2-E76G), lysis buffer 50 mM HEPES pH 7.5, 1% Triton X-100, 150 mM NaCl, 20 mM NaF, 1 mM Na3VO4, 1 mM DTT; precleared with GST beads 10 min at 4 °C; precipitated HA-Tuba seen by western blot with HA antibody; read by the paper as GEF activity; only the target purified. On the technique in general: A western blot detects proteins with antibodies after separation by electrophoresis.

Sequences of proteins named here, by UniProt entry; tags and fusion partners are left off. A change or cut given only in a name is not applied to a line headed by its entry.
UniProt Q6XZF7, whole entry: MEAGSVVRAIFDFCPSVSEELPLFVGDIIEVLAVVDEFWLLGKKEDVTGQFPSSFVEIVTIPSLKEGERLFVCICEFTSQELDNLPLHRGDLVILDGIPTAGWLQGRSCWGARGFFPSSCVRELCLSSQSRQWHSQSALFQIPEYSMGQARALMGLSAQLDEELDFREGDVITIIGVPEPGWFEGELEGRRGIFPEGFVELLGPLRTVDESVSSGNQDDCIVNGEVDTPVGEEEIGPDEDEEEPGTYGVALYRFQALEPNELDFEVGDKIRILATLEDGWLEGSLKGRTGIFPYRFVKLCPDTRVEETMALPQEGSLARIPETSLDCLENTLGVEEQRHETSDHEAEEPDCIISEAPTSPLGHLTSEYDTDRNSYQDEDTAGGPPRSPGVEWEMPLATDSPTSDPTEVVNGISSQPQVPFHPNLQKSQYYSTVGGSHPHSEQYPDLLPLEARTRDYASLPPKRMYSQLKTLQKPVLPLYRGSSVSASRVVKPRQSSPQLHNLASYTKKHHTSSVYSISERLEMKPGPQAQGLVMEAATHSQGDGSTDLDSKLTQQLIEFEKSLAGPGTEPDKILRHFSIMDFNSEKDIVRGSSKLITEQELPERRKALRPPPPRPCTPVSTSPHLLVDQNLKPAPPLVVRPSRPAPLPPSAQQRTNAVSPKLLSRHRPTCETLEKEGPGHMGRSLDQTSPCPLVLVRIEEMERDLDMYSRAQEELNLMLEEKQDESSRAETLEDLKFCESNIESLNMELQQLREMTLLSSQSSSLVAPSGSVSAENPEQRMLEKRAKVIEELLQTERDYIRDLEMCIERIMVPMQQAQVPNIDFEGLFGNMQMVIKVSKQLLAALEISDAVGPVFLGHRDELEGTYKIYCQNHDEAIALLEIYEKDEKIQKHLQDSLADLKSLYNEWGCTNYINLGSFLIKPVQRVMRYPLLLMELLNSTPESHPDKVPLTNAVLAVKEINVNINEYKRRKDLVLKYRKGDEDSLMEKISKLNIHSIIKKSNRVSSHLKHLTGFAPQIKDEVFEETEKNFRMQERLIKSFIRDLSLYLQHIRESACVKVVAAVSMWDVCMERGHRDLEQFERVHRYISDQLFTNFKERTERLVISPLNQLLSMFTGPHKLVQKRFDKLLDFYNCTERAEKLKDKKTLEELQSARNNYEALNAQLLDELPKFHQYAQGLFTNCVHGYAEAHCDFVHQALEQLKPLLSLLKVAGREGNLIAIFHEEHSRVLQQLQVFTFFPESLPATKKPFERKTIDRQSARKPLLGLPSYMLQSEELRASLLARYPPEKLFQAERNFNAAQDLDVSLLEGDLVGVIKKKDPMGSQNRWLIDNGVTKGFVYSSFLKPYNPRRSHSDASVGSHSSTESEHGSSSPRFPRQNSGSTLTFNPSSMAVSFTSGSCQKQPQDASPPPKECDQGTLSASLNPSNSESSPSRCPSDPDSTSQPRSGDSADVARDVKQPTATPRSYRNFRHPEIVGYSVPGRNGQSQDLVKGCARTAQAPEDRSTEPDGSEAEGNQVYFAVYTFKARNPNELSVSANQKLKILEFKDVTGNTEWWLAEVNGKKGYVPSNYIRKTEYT

No constants are given. Whether binding was seen depends on the method and setting. In cells and extracts the contact can be indirect. Some results given as binding are weak or reduced against the parent protein; the word gives no strength.

As to “HA-Tuba (Homo sapiens), wild type (from UniProt Q6XZF7 1-1577)”, the binding result is on record as “binds”.

For the origin of these results see PMC4735695.
